Experimental data published in the supplement of paper PMC5407854, “Inhibitor of ppGalNAc-T3-mediated O-glycosylation blocks cancer cell invasiveness and lowers FGF23 levels” (eLife, 2017).
Over roughly 1,700 compounds, “T2 sensor activation Q score (MG/GFP ratio z-score vs DMSO controls)” has its median near 0.3; the highest 2% begin near 1.9. Some of the results follow.

What follows are molecules tested on ppGalNAc-T2 sensor (assay: T2 sensor activation Q score (MG/GFP ratio z-score vs DMSO controls) (SD units); higher = more sensor activation (inhibition of ppGalNAc-T2 glycosylation)). Details: HEK293 sensor cells; 10 µM; 6 h.
Description: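 Cells were treated with compound at 10 uM for 6 h, then MG/GFP ratio was read by flow cytometry (10,000 cells per well, duplicate wells). Q = (R - R_neg)/SD_neg relative to DMSO vehicle controls; the signal rises when the glycosyltransferase is inhibited.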

Structure (SMILES)	T2 sensor activation Q score
CC1=C(O)C(=O)C=C2C1=CC=C1[C@@]2(C)CC[C@@]2(C)[C@@H]3C[C@](C)(C(=O)O)CC[C@]3(C)CC[C@]12C	-2
O=c1[nH]cc(N(CCCl)CCCl)c(=O)[nH]1	-0.65
CN1CCc2cc3c(cc2C1)OCO3	-0.3
CC1C(C)N1CC(O)Cn1ccnc1[N+](=O)[O-] (configuration not stated)	1.3
CC[C@@]1(O)C(=O)OCc2c1cc1n(c2=O)Cc2cc3ccccc3nc2-1	0.65
CN1CCN(c2ccc([N+](=O)[O-])c3no[n+]([O-])c23)CC1	0.1
CN1C2CCC1[C@@H](COC(=O)c1ccccc1)[C@@H](O)C2 (some centres not stated)	-1.45
O=C1N(c2nncs2)CCN1[N+](=O)[O-]	1.2
N=Cc1c(O)n(-c2ccccc2)c(=O)n(-c2ccccc2)c1=O	1.45
CSc1nc(N)c(N=Nc2ccc([As](=O)(O)O)cc2)c(=O)[nH]1	0.7
CN1CCCC1c1ccc(=O)[nH]c1 (configuration not stated)	-0.5
CCCC(=O)N(C)C1=Nc2ccc(Cl)cc2C(c2ccccc2)=[N+]([O-])C1	0
O=C1C[C@@H]2OCC=C3C[N+]4([O-])CC[C@]56c7ccccc7N1[C@H]5[C@H]2[C@H]3C[C@@H]64 (some centres not stated)	1.95
C=C1C/C(=C/C)C(=O)O[C@@H]2CCN3CC=C(COC(=O)[C@]1(C)O)[C@H]23	0.25
FCCN(CCF)c1cccc(Cl)c1	1.1
O=C1/C(=C\c2ccccc2)C2OCC=C3CN4CCC56c7ccccc7N1C5C2C3CC46 (configuration not stated)	0.15
O=P(OC1=CCCCC1)(c1ccccc1)c1ccccc1	0.65
C=C1C(=O)O[C@H]2C[C@@]3(C)O[C@@H]3CC/C(C)=C/[C@@H](OC(C)=O)[C@H]12	1.35
Nc1nc(N)c2cnnn2n1	-1.3
O=[N+]([O-])c1cc([As](=O)(O)c2ccc(O)c([N+](=O)[O-])c2)ccc1O	0
CN1CCN(c2nc(N)cc(=O)[nH]2)CC1	-0.2

Structure (SMILES)	T2 sensor activation Q score
CC(C)(C)c1cc(C=C(C#N)C#N)cc(C(C)(C)C)c1O	0.85
O=C1N[C@H]2[C@H](O)[C@H](O)[C@@H](O)[C@H](O)[C@@H]2c2cc3c(c(O)c21)OCO3	2.6
c1cnc2c(c1)ccc1ncccc12	0.75
N#CC12CNCC1CN=N2 (configuration not stated)	1.65
Cc1nc(C)c(C(=O)N/N=C/c2ccc(N(CCCl)CCCl)cc2)s1	0.65
O=c1cccc2n1C[C@@H]1CNC[C@H]2C1	-1
O=c1cccc2n1C[C@H]1C[C@@H]2CN2CCCC[C@@H]12	-0.85
COC(=O)C1C(O)C(C)C(O)C(C)/C=C\C=C(C)C(=O)Nc2c(C)c(OC(C)=O)c3c(c2O)C(=O)C(C)=C2OCOC(=C23)C(C)=CC(C)(O)C(O)C(C)C1O (configuration not stated)	0.5
NN=C1C(Cl)=C(Cl)C(Cl)=C1Cl	-0.35
CCN(CC)c1ccc(C=C2C(=O)NC(=S)NC2=O)cc1	0.35
Cn1c(CCCC(=O)O)nc2cc(N(CCCl)CCCl)ccc21	-1.3
c1cncc(C2Nc3cccc4cccc(c34)N2)c1	1.25
C[C@]12CC[C@@H]3c4ccc(OC(=O)N(CCCl)CCCl)cc4CC[C@H]3[C@@H]1CC[C@@H]2OP(=O)(O)O	-1.5
O=[N+]([O-])c1ccc(-c2ccccc2)c([As](=O)(O)O)c1	-0.3
C[C@H]1CC[C@@]2(C)[C@@H](CC[C@@H]3[C@@H]2CC[C@]2(C)[C@@H](O)CC[C@@H]32)C1	0.8
CCOP(=O)(OCC)/C(C#N)=C/c1ccc(Br)cc1	1.45
O=c1cc(-c2nn[nH]n2)[nH]c(=O)[nH]1	-1.2
c1ccc(C2NCCc3[nH]cnc32)cc1 (configuration not stated)	-1.1
CCOC(=O)c1ccc2[nH]c(-c3ccc(S(=O)(=O)F)cc3)cc(=O)c2c1	1.1
O=C1CN=C(c2ccc[nH]2)c2cc(Cl)ccc2N1	-0.55
O=C(CF)N(O)c1ccc(/C=C/c2ccccc2)cc1	-0.7

Copied from the list.
Value of O=C(CF)N(O)c1ccc(/C=C/c2ccccc2)cc1 under T2 sensor activation Q score: -0.7
Value of O=[N+]([O-])c1ccc(-c2ccccc2)c([As](=O)(O)O)c1 under T2 sensor activation Q score: -0.3
Value of O=c1cccc2n1C[C@@H]1CNC[C@H]2C1 under T2 sensor activation Q score: -1
Value of Cn1c(CCCC(=O)O)nc2cc(N(CCCl)CCCl)ccc21 under T2 sensor activation Q score: -1.3
Value of CCOP(=O)(OCC)/C(C#N)=C/c1ccc(Br)cc1 under T2 sensor activation Q score: 1.45
Value of C[C@]12CC[C@@H]3c4ccc(OC(=O)N(CCCl)CCCl)cc4CC[C@H]3[C@@H]1CC[C@@H]2OP(=O)(O)O under T2 sensor activation Q score: -1.5

(further entries)

Structure (SMILES)	T2 sensor activation Q score
Cc1cc(OCCN2CC2)c2ccccc2n1	-0.45
CC(C)NC1C2CCC(CC2)C1(O)c1ccc(Cl)c(Cl)c1 (configuration not stated)	-1.4
O=C(NC(=O)c1c(F)cccc1F)Nc1cc(Cl)c(F)c(Cl)c1F	0.55
CO[C@@]12[C@H](COC(N)=O)C3=C(C(=O)C(C)=C(N)C3=O)N1C[C@H]1[C@@H]2N1C (some centres not stated)	0.35
S=C1NC2(CCCCC2)NC12CCCCC2	1.7
CC(C)(O)C1C2OC(=O)C1C1(O)CC3OC34C(=O)OC2C14C (configuration not stated)	1.3
CC1CC(C)OP(=O)(OCCC#N)O1 (configuration not stated)	0.35
COC1C(OC(=O)c2ccc(C)[nH]2)C(O)C(Oc2ccc3c(O)c(NC(=O)c4ccc(O)c(CC=C(C)C)c4)c(=O)oc3c2Cl)OC1(C)C (configuration not stated)	0.75
CCC(CO)NC(=O)C1C=C2c3cccc4[nH]cc(c34)CC2N(C)C1 (configuration not stated)	-0.05
COc1ccc(CCNC2(C#N)CCCCC2)cc1OC	-0.65
Cc1c(CCN)ccc2c1[nH]c1ccccc12	0.7
CC12CCC3C(CCC4Cc5[nH]c6ccccc6c5CC43C)C1CCC2O (configuration not stated)	0.65
CCC(C)c1cnc(CC(C)C)c(=O)n1O (configuration not stated)	-0.75
CCN1CCc2ccccc2C1	1.3
NCCCNCCSP(=O)(O)O	-0.45
C[C@H](N)C(=O)N[C@@H]1[C@H]2C(=C(O)C[C@@H](O)[C@@H]2O)C(=O)O[C@]1(C)C(Cl)Cl	1.8
CC1(C)CC(=O)CC(C)(C)N1O	-1.1
CN1C2c3ccccc3C3C4c5ccccc5C(C31)C(C2[N+](=O)[O-])N4C (configuration not stated)	0.85
CC(=O)Nc1cc([As](=O)(O)O)ccc1O	0.2
O=C(O)CN1C(=O)CN=C(c2ccccn2)c2cc(Cl)ccc21	1.7
C/C=C/CC1(CC)C(=O)NC(=S)NC1=O	0.45

Structure (SMILES)	T2 sensor activation Q score
CCC1CN1P(=O)(Oc1ccc(Cl)cc1)N1CC1CC (configuration not stated)	0.7
CN(C)C1CCc2[nH]c3c(F)cc(F)cc3c2C1 (configuration not stated)	-0.15
CN1CCC2(O)OCCCC2C1 (configuration not stated)	1.05
NC(=S)c1cn([C@@H]2O[C@H](CO)[C@@H](O)[C@H]2O)c2ncnc(N)c12	1.1
C1CN1c1nc(N2CC2)nc(N2CC2)n1	-0.6
O=C(O)c1[nH]c(=O)[nH]c(=O)c1F	1.85
Cc1c(C(=O)c2ccccc2)c2ccccc2n1C	1.75
COc1cc(C=C2C(=O)NC(=O)NC2=O)ccc1O	0.65
COc1cc2c(cc1O)C[C@H]1c3c(cc(O)c(OC)c3-2)CCN1C	0.75
CN1C(=O)CC[C@@]2(C)C1=CC[C@@H]1[C@@H]2CC[C@@]2(C)[C@H]1CC[C@]2(C)O	-0.25
CC(=O)Nc1ccc([As](=O)(O)c2ccc([N+](=O)[O-])cc2)cc1	0.35
O=P1(N(CCCl)CCCl)NCCCO1 (configuration not stated)	-1
COc1ccc(C(=O)OC2CCC3(C)C4CCC5C6(O)CC(O)C7(O)C(CN8CC(C)CCC8C7(C)O)C6(O)CC53OC24O)cc1OC (configuration not stated)	-0.4
COc1ccc2c(c1)NP(=S)(Oc1ccccc1)N2 (configuration not stated)	-0.4
C=C1C[C@@H]2[C@H](CC[C@]3(C)C(=O)CC[C@@H]23)[C@@]2(C)C=CC(=O)C=C12	-1.65
CN(C)P(=O)(N(C)C)N1CC1	-0.35
C1CC2NCCC3NCCC(N1)N32 (configuration not stated)	-0.55
Cn1cc(C=O)c2nccnc21	-0.4
C=CCN1CCC23c4c5ccc(O)c4OC2C(=O)CCC3(O)C1C5 (configuration not stated)	2.2
